# Measured values reported in the supplement of paper PMC12819154, “High-throughput peptide-centric local stability assay extends protein–ligand identification to membrane proteins, tissues and bacteria” (Nature Structural & Molecular Biology, 2025).
# The chains behind the UniProt entries cited, without tags or fusion partners. Where a name states a change or a piece, a line headed by the entry shows the natural chain unless it says otherwise.
# UniProt Q96E11: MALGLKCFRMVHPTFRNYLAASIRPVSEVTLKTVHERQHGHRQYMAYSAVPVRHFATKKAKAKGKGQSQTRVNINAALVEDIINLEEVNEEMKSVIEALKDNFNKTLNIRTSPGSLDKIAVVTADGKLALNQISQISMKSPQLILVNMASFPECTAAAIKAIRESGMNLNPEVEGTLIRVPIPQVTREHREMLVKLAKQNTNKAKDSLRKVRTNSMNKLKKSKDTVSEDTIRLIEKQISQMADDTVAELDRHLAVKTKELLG
# UniProt Q969W8: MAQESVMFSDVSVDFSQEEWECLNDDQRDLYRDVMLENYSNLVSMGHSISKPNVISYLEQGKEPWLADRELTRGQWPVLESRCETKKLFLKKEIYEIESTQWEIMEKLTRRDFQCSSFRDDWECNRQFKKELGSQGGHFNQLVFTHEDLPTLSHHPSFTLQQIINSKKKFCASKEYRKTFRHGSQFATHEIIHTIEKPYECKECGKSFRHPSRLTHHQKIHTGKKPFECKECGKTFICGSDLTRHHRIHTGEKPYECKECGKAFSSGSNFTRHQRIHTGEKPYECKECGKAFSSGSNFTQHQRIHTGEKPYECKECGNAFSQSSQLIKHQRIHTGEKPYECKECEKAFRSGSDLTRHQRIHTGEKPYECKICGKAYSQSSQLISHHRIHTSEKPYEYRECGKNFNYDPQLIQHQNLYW
# UniProt Q92882: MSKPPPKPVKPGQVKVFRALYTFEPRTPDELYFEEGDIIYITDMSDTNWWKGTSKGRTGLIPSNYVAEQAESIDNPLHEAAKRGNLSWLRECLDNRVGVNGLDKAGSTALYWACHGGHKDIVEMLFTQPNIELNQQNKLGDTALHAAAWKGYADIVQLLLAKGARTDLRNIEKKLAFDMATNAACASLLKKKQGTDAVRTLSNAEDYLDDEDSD
# UniProt Q96G46: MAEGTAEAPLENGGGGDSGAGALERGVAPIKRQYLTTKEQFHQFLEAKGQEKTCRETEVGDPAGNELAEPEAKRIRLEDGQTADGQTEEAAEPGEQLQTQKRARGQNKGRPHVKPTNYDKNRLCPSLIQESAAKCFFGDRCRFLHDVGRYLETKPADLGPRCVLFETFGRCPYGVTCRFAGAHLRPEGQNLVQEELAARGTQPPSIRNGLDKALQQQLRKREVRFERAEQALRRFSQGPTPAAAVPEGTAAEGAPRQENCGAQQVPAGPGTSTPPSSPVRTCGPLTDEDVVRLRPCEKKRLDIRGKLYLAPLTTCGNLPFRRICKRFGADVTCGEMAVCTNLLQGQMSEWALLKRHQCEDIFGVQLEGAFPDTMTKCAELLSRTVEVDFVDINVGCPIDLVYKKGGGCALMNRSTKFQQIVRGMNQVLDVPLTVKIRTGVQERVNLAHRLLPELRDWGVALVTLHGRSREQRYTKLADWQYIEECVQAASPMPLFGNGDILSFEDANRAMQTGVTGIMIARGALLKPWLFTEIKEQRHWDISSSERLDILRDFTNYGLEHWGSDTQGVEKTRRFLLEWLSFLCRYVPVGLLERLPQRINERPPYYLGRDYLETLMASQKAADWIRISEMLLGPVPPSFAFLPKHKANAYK
# UniProt Q96FQ7: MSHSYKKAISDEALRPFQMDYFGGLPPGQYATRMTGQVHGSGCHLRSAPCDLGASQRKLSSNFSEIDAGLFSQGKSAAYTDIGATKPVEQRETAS
# UniProt Q96EZ8, whole entry: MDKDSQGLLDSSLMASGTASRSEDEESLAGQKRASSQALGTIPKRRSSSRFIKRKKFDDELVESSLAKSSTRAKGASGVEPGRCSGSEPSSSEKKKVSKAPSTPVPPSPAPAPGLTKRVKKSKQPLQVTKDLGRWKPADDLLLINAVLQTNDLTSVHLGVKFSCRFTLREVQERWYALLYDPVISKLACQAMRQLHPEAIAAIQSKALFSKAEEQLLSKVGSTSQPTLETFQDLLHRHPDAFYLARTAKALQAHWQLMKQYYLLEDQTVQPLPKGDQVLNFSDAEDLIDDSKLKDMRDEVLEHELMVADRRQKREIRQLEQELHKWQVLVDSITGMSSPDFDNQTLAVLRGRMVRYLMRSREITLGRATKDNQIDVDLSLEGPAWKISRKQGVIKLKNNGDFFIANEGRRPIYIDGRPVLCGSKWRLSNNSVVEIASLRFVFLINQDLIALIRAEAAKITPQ
# UniProt Q96FK6: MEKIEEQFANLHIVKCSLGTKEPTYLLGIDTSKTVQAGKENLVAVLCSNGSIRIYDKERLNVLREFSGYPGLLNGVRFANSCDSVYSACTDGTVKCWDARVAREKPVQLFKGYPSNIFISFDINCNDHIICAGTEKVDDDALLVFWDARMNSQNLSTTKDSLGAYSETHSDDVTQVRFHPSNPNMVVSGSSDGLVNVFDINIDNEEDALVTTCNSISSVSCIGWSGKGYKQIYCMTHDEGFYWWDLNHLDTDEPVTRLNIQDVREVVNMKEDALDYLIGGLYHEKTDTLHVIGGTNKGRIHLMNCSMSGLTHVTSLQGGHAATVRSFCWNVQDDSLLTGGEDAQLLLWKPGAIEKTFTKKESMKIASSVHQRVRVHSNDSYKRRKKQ
# UniProt Q96A33: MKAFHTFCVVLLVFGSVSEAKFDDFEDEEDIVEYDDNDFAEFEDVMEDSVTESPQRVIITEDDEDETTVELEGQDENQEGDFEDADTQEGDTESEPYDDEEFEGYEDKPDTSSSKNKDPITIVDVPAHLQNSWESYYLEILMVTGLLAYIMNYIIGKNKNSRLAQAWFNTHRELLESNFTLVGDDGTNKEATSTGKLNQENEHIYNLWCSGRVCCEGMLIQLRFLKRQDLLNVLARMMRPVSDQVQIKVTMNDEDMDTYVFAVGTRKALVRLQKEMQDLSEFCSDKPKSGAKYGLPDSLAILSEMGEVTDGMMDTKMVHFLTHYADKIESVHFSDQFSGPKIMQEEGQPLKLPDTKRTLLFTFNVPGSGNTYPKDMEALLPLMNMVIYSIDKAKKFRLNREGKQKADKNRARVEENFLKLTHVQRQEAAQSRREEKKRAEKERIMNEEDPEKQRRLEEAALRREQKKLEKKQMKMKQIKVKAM
# UniProt Q96AY2: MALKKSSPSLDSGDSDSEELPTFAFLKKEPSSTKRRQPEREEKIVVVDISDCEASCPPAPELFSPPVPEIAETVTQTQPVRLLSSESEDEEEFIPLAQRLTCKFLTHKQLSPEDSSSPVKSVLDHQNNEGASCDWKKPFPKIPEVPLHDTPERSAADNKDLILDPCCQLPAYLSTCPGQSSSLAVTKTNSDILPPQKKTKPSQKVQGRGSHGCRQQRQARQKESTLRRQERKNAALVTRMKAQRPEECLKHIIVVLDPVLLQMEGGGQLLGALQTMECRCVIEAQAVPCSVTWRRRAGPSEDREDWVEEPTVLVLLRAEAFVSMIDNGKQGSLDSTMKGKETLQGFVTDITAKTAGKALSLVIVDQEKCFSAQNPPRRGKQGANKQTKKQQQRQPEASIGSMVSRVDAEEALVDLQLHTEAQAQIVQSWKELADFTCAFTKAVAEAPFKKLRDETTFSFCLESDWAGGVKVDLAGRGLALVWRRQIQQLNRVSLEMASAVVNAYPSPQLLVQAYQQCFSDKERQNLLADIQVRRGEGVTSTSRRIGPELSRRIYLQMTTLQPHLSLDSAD
# UniProt Q96B23: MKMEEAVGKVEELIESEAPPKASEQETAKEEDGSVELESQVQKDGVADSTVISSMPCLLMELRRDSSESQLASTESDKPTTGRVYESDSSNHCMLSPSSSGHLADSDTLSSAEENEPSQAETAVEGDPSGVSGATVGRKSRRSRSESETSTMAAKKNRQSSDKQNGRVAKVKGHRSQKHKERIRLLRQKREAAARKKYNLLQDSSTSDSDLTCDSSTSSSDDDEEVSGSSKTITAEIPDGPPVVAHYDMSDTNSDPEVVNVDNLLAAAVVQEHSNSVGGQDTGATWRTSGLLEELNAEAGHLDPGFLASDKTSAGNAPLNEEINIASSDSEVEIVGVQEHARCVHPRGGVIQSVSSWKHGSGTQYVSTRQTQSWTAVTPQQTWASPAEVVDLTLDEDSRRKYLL
# UniProt Q96EA4: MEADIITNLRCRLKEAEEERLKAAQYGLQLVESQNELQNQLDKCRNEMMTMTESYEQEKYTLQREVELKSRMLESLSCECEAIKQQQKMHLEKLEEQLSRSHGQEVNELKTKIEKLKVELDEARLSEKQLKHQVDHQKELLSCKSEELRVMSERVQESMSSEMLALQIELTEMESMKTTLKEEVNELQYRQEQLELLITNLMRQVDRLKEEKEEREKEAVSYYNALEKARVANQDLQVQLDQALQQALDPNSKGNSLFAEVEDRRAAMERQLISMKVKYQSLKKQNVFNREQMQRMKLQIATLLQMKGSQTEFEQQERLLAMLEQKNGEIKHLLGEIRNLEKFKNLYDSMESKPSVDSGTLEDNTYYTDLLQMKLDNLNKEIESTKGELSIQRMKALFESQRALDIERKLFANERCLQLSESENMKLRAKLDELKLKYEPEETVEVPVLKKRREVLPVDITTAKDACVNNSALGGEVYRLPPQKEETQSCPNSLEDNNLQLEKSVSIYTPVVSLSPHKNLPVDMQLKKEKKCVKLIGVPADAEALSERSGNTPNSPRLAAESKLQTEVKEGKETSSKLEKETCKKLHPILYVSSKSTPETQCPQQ
# UniProt Q969S3: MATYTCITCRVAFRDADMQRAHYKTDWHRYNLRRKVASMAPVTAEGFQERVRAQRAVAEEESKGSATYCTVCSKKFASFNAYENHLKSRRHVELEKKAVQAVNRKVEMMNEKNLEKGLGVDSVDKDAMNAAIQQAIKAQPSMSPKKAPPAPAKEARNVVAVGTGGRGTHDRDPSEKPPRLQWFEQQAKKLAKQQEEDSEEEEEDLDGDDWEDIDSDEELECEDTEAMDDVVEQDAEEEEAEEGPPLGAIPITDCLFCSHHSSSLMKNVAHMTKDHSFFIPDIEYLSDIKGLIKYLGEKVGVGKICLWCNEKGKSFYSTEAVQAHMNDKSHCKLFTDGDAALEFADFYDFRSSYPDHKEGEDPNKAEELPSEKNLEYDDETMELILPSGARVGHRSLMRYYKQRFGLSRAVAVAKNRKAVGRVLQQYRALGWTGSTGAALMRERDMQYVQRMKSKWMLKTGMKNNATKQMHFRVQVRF
# UniProt Q92985: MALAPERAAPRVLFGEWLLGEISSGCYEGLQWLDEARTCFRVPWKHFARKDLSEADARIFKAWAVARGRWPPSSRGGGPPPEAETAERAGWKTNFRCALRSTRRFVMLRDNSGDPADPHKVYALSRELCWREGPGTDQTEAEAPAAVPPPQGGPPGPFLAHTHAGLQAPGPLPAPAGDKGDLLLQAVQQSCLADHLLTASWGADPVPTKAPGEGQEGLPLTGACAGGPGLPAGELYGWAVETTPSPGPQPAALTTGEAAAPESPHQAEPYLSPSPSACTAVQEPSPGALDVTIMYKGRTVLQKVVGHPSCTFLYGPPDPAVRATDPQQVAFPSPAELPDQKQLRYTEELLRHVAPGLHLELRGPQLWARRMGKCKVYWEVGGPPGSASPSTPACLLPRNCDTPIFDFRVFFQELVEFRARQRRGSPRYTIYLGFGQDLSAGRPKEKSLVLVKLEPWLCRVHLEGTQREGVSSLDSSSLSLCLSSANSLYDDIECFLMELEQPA
# UniProt Q96E22: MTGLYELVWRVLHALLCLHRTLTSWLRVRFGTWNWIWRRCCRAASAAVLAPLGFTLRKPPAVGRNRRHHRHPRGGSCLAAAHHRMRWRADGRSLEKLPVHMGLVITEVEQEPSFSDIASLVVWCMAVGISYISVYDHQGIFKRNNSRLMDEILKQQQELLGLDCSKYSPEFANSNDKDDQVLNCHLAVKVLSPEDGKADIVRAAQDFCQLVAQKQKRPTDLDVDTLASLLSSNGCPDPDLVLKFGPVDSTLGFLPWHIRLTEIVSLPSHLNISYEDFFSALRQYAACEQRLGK
# UniProt Q969G6: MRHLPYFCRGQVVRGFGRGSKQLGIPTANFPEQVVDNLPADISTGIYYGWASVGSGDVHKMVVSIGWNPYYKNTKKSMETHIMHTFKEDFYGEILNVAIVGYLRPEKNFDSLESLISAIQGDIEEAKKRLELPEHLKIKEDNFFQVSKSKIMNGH
# UniProt Q96CP2: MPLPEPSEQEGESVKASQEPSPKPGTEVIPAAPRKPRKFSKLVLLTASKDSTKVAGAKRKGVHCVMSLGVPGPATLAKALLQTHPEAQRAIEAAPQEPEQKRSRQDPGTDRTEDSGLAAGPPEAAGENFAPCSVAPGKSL
# UniProt Q969Q6: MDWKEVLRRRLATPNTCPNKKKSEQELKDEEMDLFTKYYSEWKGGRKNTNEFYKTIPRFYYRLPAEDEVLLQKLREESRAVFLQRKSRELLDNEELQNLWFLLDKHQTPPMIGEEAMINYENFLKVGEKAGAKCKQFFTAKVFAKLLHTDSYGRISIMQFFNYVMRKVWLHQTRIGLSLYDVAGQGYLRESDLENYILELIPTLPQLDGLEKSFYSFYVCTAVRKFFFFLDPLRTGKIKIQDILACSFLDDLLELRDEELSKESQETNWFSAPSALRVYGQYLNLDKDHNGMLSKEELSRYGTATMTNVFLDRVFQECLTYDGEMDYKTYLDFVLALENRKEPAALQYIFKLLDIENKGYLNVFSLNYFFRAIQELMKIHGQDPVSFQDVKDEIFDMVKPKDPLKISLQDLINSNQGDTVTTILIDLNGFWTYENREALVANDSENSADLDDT
# The list shows a part of the results. Most values lie at the level of the controls, where differences are scatter.
# Compound: CN[C@@H]1C[C@H]2O[C@@](C)([C@@H]1OC)n1c3ccccc3c3c4c(c5c6ccccc6n2c5c31)C(=O)NC4 [staurosporine]
# Experiment: log2 fold change of tryptic peptide abundance, ligand vs vehicle (limited proteolysis) (log2 ratio); higher = more trypsin-susceptible (destabilized)
# Details: ligand concentration: 20 uM; sample: K562 cleared lysate; digestion: 4 min, 22 C (HT-PELSA RT4min, Orbitrap Astral)
row,Target,log2 fold change
1,"TSR2 (peptide sequence: AKWLGGAVEDYFMR, peptide start residue: 43) (UniProt Q969E8)",0.109
2,"MRRF (peptide sequence: TSPGSLDKIAVVTADGK, peptide start residue: 111) (UniProt Q96E11)",0.254
3,"UniProt Q969W8 (peptide sequence: AFSSGSNFTR, peptide start residue: 263)",-0.151
4,"TNPO1 (peptide sequence: FSDQFPLPLK, peptide start residue: 880) (UniProt Q92973)",-0.319
5,"OSTF1 (peptide sequence: LAFDMATNAACASLLKK, peptide start residue: 175) (UniProt Q92882)",0.614
6,"DUS3L (peptide sequence: YVPVGLLER, peptide start residue: 585) (UniProt Q96G46)",0.152
7,"MBD6 (peptide sequence: AQAPSASHSSSLRPSQR, peptide start residue: 348) (UniProt Q96DN6)",0.436
8,"SMARCD2 (peptide sequence: CTLLLMLDHQPPQYK, peptide start residue: 298) (UniProt Q92925)",-0.404
9,"LINC00526 (peptide sequence: MTGQVHGSGCHLR, peptide start residue: 34) (UniProt Q96FQ7)",-0.652
10,"UniProt Q96AX9 (peptide sequence: KLRPDGSEVASAAPAPGPPR, peptide start residue: 873)",0.396
11,"PPWD1 (peptide sequence: WVGPLPVEATLAK, peptide start residue: 50) (UniProt Q96BP3)",0.295
12,"RILPL2 (peptide sequence: MVVDLTDPNRPR, peptide start residue: 121) (UniProt Q969X0)",0.0822
13,"MCRS1 (peptide sequence: DEVLEHELMVADRR, peptide start residue: 298) (UniProt Q96EZ8)",0.326
14,"ABCC2 (peptide sequence: KGEFAKNLK, peptide start residue: 852) (UniProt Q92887)",0.222
15,"WDR89 (peptide sequence: MEKIEEQFANLHIVK, peptide start residue: 1) (UniProt Q96FK6)",0.191
16,"CCDC47 (peptide sequence: IMNEEDPEKQR, peptide start residue: 444) (UniProt Q96A33)",-0.134
17,"ARHGEF2 (peptide sequence: EVMKQQDVIYELIQTELHHVR, peptide start residue: 232) (UniProt Q92974)",0.829
18,"SMARCE1 (peptide sequence: SRAEAALEEESR, peptide start residue: 147) (UniProt Q969G3)",-0.196
19,"AIDA (peptide sequence: IATCLELR, peptide start residue: 66) (UniProt Q96BJ3)",0.0542

row,Target,log2 fold change
1,"RNF31 (peptide sequence: LLAQECAVCGWALPHNR, peptide start residue: 694) (UniProt Q96EP0)",-0.264
2,"CHCHD1 (peptide sequence: PNKPLILANR, peptide start residue: 23) (UniProt Q96BP2)",0.227
3,"EME1 (peptide sequence: QLSPEDSSSPVK, peptide start residue: 109) (UniProt Q96AY2)",0.252
4,"UniProt Q96DB5 (peptide sequence: LLVYEALEYAKR, peptide start residue: 141)",0.41
5,"USP7 (peptide sequence: DLLQFFKPRQPK, peptide start residue: 863) (UniProt Q93009)",-0.631
6,"C18orf25 (peptide sequence: SRSESETSTMAAK, peptide start residue: 143) (UniProt Q96B23)",0.343
7,"UniProt Q96EA4 (peptide sequence: VKYQSLKK, peptide start residue: 277)",0.657
8,"ZNF622 (peptide sequence: NVVAVGTGGR, peptide start residue: 157) (UniProt Q969S3)",-0.0896
9,"TTC17 (peptide sequence: DIALVNLANVLHR, peptide start residue: 262) (UniProt Q96AE7)",-0.609
10,"VPS33A (peptide sequence: DKNFNAVGSVLSKK, peptide start residue: 301) (UniProt Q96AX1)",-0.119
11,"UniProt Q92985 (peptide sequence: NCDTPIFDFR, peptide start residue: 399)",0.164
12,"NUS1 (peptide sequence: FGPVDSTLGFLPWHIR, peptide start residue: 244) (UniProt Q96E22)",-0.11
13,"ZBTB10 (peptide sequence: NLTNLASNVK, peptide start residue: 506) (UniProt Q96DT7)",-0.283
14,"RFK (peptide sequence: IKEDNFFQVSK, peptide start residue: 138) (UniProt Q969G6)",0.696
15,"FLYWCH2 (peptide sequence: PGTEVIPAAPR, peptide start residue: 24) (UniProt Q96CP2)",0.579
16,"UniProt Q96BN8 (peptide sequence: ELLIHER, peptide start residue: 67)",-0.213
17,"PPP2R3C (peptide sequence: LATPNTCPNK, peptide start residue: 11) (UniProt Q969Q6)",0.588
18,"UniProt Q96C28 (peptide sequence: AVELSFICGTCGKALSCHSR, peptide start residue: 171)",-0.232

# Taken from above:
# MRRF (peptide sequence: TSPGSLDKIAVVTADGK, peptide start residue: 111) (UniProt Q96E11) – log2 fold change: 0.254
# DUS3L (peptide sequence: YVPVGLLER, peptide start residue: 585) (UniProt Q96G46) – log2 fold change: 0.152
